From publication PMC10362617
Results are given in words; binding and its absence hold for the method and conditions named. Binding seen in cells or lysates may run through a third protein. Some results given as binding are weak or reduced against the parent protein; the word gives no strength.

Amino acid sequences for entries named in this document (tags omitted).
UniProt Q969L2: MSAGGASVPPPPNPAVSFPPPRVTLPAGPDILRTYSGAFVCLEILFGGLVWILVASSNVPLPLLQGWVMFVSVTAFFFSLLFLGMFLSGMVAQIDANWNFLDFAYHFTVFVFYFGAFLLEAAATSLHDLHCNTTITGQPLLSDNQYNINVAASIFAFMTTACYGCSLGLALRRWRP
UniProt P35222: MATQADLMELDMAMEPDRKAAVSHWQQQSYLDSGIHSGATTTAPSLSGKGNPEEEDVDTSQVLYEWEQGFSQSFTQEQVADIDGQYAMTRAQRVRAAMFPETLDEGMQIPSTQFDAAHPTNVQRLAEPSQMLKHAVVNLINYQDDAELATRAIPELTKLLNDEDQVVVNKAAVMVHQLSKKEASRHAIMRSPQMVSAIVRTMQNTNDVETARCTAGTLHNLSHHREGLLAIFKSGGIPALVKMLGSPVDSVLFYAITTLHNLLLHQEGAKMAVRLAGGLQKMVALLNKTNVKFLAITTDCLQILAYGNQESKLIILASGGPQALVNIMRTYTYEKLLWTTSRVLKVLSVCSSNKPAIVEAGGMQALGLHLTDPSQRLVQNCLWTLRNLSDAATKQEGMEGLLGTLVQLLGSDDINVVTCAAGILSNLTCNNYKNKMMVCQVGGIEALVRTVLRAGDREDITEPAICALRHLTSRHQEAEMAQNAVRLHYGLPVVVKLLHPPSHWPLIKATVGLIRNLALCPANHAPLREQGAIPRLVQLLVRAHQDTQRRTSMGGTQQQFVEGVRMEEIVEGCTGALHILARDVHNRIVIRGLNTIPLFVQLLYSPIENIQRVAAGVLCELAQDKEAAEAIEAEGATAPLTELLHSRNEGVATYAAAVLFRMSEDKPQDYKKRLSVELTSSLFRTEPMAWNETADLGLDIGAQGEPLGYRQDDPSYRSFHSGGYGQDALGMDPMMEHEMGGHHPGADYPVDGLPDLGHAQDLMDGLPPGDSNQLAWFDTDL

Molecular target: Myelin and lymphocyte protein 2 (MAL2) (human (endogenous in MDA-MB-231)) (UniProt Q969L2)
Assay: co-IP; endogenous proteins in MDA-MB-231 whole cell lysates; MAL2 antibody, β-catenin antibody or IgG on beads (DIA IP/CoIP Kit), incubated at 4 °C for more than 8 h, washed with PBST five times, western blot

## β-catenin (from UniProt P35222 1-781)
  binding: binds
